Test results: patent publication EP0095295B1, “Cyclic peptide derivatives” (ELI LILLY AND COMPANY, priority 1982, dated 1987)
Not every detail of the peptide structures is certain; ends, links or a residue may be inferred.

Test system: Micrococcus luteus
Assay: Micrococcus luteus assay of antibiotic activity
Assay type: cell-based
Settings: M. luteus assay used to monitor deacylation

SMILES: C[C@H](CC(=O)O)[C@@H]1NC(=O)[C@@H](CO)NC(=O)CNC(=O)[C@H](CC(=O)O)NC(=O)[C@@H](C)NC(=O)[C@H](CC(=O)O)NC(=O)[C@H](CCCN)NC(=O)CNC(=O)[C@@H](NC(=O)[C@H](CC(=O)O)NC(=O)[C@H](CC(N)=O)NC(=O)[C@@H](N)Cc2c[nH]c3ccccc23)[C@@H](C)OC(=O)[C@H](CC(=O)c2ccccc2N)NC1=O [A-21978C nucleus]
- biological activity: biologically inactive
